# Values from PubChem BioAssay AID602196 (INSERM, 2012)
# Assay: 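Genes whose knock-down alters cisplatin killing of lung cancer cells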
# Cells: human A549 lung cancer cells
# Reagents: siRNA pair against human genes
# Timing: 48 h transfection before cisplatin; time from cisplatin to read-out not stated
# Treatment: cisplatin at a dose killing half of control-siRNA cells; exact dose and duration not given
# Measured: 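Cisplatin cell death as a shift from the 50% death seen with control siRNA; siRNAs toxic or growth-blocking alone scored 0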
# Scale: two-siRNA summed score (-2 to +2): higher = both siRNAs protect from cisplatin killing; -2 means both sensitise; mean protection from cisplatin (shift in death) and protection from cisplatin (shift in death), siRNA C and protection from cisplatin (shift in death), siRNA D: higher = protection from cisplatin killing
# Active means: 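Each siRNA scores 0 if harmful alone by LDH or WST-1, otherwise +1 if it reduces and -1 if it increases cisplatin killing; a gene is active when both siRNAs agree (sum +2 or -2)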
# Calls: active = both siRNAs shift cisplatin killing the same way; inactive = no consistent shift, or siRNA harmful alone
# In all, the deposit lists about 23,000 reagents; below is a random part of them. 455 of them (2%) were called active. 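Active includes both protection and sensitisation; some change values fall well beyond the stated -50 to +50 range.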 Not given: the amount of reagent.
target,two-siRNA summed score (-2 to +2),mean protection from cisplatin (shift in death) (%),"protection from cisplatin (shift in death), siRNA C (%)","protection from cisplatin (shift in death), siRNA D (%)",activity call
CELF2-AS2,0,12.6,6.8,18.3,inactive
SPRED2,0,6.3,11.3,1.3,inactive
PANK3,0,5.8,10.5,1.1,inactive
MSH2,0,5.6,-1.6,12.9,inactive
SALL2,1,18.1,16.3,19.9,inactive
PTGS2,0,11.5,5.6,17.3,inactive
ELOF1,0,-7.7,-8.8,-6.6,inactive
LOC205655,-1,0,11.1,-11,inactive
SLC8A2,0,-1.1,-10.7,8.4,inactive
SSBP3,0,12.6,5.7,19.4,inactive
LOC392895,0,7.3,6.8,7.8,inactive
GALT,0,-2.4,-2.8,-1.9,inactive
CCL4,0,2.3,8.5,-3.9,inactive
BPTF,0,-0.4,5.4,-6.3,inactive
LOC391570,0,5.5,4.8,6.2,inactive
TSPAN4,1,7.9,22,-6.1,inactive
MATN3,0,5.2,9.8,0.7,inactive
USH1C,0,-5.1,-0.8,-9.4,inactive
SELENON,0,4.6,6.6,2.5,inactive
SRSF1,0,8.4,8.5,8.3,inactive
NEUROD2,1,5.4,-7.8,18.6,inactive
AMH,0,-3.7,1.8,-9.1,inactive
NOP56P2,0,-0.6,-4.7,3.6,inactive
BCL10,0,5.1,11.5,-1.3,inactive
MNMIP1,0,-3.7,6.7,-14,inactive
TMEM135,0,2.6,3.3,1.9,inactive
ACSM2B,1,5.6,25.1,-13.9,inactive
LOC344657,0,5.1,10,0.3,inactive
RHEX,0,6.2,10.4,2,inactive
ESPL1,0,-9.3,-9.5,-9.2,inactive
PSG5,0,11.3,16.1,6.6,inactive
ANKRD39,0,10.9,16,5.8,inactive
RNF212,0,9.6,7.7,11.5,inactive
LOC389089,0,4.7,14.2,-4.8,inactive
LINC01242,0,5.5,8.1,3,inactive
LINC01559,0,4.7,3.8,5.6,inactive
CIB3,0,4.3,6.2,2.3,inactive
USP1,1,13.7,1.4,26,inactive
HSP90B1,0,1.3,-5.5,8,inactive
DRC2,1,22.5,24.1,20.8,inactive
EIF1,0,-2.4,-1.2,-3.6,inactive
LOC112268070,0,2.6,-0.7,5.9,inactive
KRT9,0,-5.2,-5.5,-4.9,inactive
FMN2,1,10,1.4,18.7,inactive
HIRA,1,13,5.2,20.8,inactive
PPP4R3B,1,13,13.6,12.5,inactive
COA5,-1,-7.1,-12.1,-2,inactive
GRIK1,0,14.8,34.1,-4.5,inactive
LOC440467,0,15.7,15.5,15.9,inactive
CISD2,0,23.9,23.3,24.6,inactive
USF3,1,11.7,8.5,14.9,inactive
CFH,0,2.3,10.4,-5.7,inactive
LOC441141,0,-4.3,3,-11.7,inactive
DPYSL5,1,13.8,11.7,16,inactive
OR7D2,1,8.3,0.4,16.1,inactive
MIF,-1,-18.4,-23,-13.9,inactive
MTPN,1,14.1,14.4,13.9,inactive

6 successive entries already listed, quoted:
target,two-siRNA summed score (-2 to +2),mean protection from cisplatin (shift in death) (%),"protection from cisplatin (shift in death), siRNA C (%)","protection from cisplatin (shift in death), siRNA D (%)",activity call
SRSF1,0,8.4,8.5,8.3,inactive
NEUROD2,1,5.4,-7.8,18.6,inactive
AMH,0,-3.7,1.8,-9.1,inactive
NOP56P2,0,-0.6,-4.7,3.6,inactive
BCL10,0,5.1,11.5,-1.3,inactive
MNMIP1,0,-3.7,6.7,-14,inactive
